Test results published in publication PMC5489516.

Experiments:
[1] = target: tankyrase (TNKS), endogenous (human (endogenous in HT29, SW480, RKO)); assay: co-IP; lysates of APC-mutant HT29 and SW480 cells, IP of endogenous TNKS with anti-TNKS antibody, immunoblot
[2] = target: tankyrase (TNKS), endogenous (human (endogenous in HT29, SW480, RKO)); assay: co-IP; lysate of APC-competent RKO cells, IP of endogenous TNKS with anti-TNKS antibody, immunoblot
[3] = target: tankyrase (TNKS), endogenous (human (endogenous in HT29, SW480, RKO)); assay: proximity ligation; in situ PLA (DuoLink) of endogenous TNKS and PrxII in HT29 and SW480 cells; PrxII-depleted cells as negative control
[4] = target: tankyrase (TNKS), endogenous (human (endogenous in HT29, SW480, RKO)); assay: proximity ligation; in situ PLA (DuoLink) of endogenous TNKS and PrxII in RKO cells

binding [1]: binds
binding [3]: binds
binding [4]: no binding (only in RKO cells)
B1: peroxiredoxin type II (PrxII), endogenous (enzyme, UniProt P32119 1-198)
chain: MASGNARIGKPAPDFKATAVVDGAFKEVKLSDYKGKYVVLFFYPLDFTFVCPTEIIAFSNRAEDFRKLGCEVLGVSVDSQFTHLAWINTPRKEGGLGPLNIPLLADVTRRLSEDYGVLKTDEGIAYRGLFIIDGKGVLRQITVNDLPVGRSVDEALRLVQAFQYTDEHGEVCPAGWKPGSDTIKPNVDDSKEYFSKHN
binding [2]: no binding (only in APC-competent RKO cells)

No constants are given. Whether binding was seen depends on the method and setting. Binding seen in cells or lysates may run through a third protein. For some of these results: Binding can be weak; no strength is given.
